Source: US20180194850A1 (GENERAL HOSPITAL, published 2018)
Results are given in words; binding and its absence hold for the method and conditions named. Some entries that bind do so weakly or less than the wild type. Tags and fused reporters may be left off the sequences shown.

What was measured:
Assay in all cases: linear peptide ELISA
S04068 = target: T1, S04068
T1 sequence (peptide): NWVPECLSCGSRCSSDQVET

S04079 = target: T2, S04079
T2 sequence (peptide): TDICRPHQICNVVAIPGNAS

S04066 = target: T3, S04066
T3 sequence (peptide): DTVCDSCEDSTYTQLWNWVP

S03931 = target: T4, S03931
T4 sequence (peptide): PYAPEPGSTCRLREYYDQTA

S04075 = target: T5, S04075
T5 sequence (peptide): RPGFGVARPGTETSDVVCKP

S04070 = target: T6, S04070
T6 sequence (peptide): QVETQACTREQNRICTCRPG

S04077 = target: T7, S04077
T7 sequence (peptide): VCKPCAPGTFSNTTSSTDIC

S04069 = target: T8, S04069
T8 sequence (peptide): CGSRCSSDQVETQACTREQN

S04065 = target: T9, S04065
T9 sequence (peptide): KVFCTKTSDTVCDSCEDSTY

[1] = target: epitope containing amino acids 128-155 of SEQ ID NO: 7 within human TNFR2 (human)
S04062 = target: T10, S04062
T10 sequence (peptide): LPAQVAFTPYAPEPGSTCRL

S04063 = target: T11, S04063
T11 sequence (peptide): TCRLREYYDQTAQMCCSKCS

S04078 = target: T12, S04078
T12 sequence (peptide): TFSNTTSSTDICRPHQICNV

S04076 = target: T13, S04076
T13 sequence (peptide): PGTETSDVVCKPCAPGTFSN

S04067 = target: T14, S04067
T14 sequence (peptide): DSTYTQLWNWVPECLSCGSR

S04081 = target: T15, S04081
T15 sequence (peptide): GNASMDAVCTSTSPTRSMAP

S04080 = target: T16, S04080
T16 sequence (peptide): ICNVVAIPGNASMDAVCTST

S04064 = target: T17, S04064
T17 sequence (peptide): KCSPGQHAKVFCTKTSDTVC

[2] = target: epitope containing amino acids 112-139 of SEQ ID NO: 7 within human TNFR2 (human)

B1: antagonistic TNFR2 antibody TNFRAB1 (antibody, V domains shown)
VH: EVQLQESGGGLVKPGGSLKLSCAASGFTFSSYVMSWVRQTPEKRLEWVATISSGGSYTYYPDSVKGRFTISRDNAKNTLYLQMSSLRSEDTAMYYCARQRVDGYSSYWYFDVWGAGTAVTVSS
VL: DIVLTQSPAIMSASPGEKVTITCSASSSVYYMYWFQQKPGTSPKLWIYSTSNLASGVPVRFSGSGSGTSYSLTISRMEAEDAATYYCQQRRNYPYTFGGGTKLEIKR
notes: Murine monoclonal IgG; For SPR the antibody was biotinylated and captured on streptavidin; also called TNFR2 antagonist 1
binding (S04068): no binding (tested: 0.1 µg/well)
binding (S04079): no binding (tested: 0.1 µg/well)
binding (S04066): no binding (tested: 0.1 µg/well)
binding (S03931): no binding (tested: 0.1 µg/well)
binding (S04075): no binding (tested: 0.1 µg/well)
binding (S04070): no binding (tested: 0.1 µg/well)
binding (S04077): no binding (tested: 0.1 µg/well)
binding (S04069): no binding (tested: 0.1 µg/well)
binding (S04065): no binding (tested: 0.1 µg/well)
binding [1]: binds
binding (S04062): no binding (tested: 0.1 µg/well)
binding (S04063): no binding (tested: 0.1 µg/well)
binding (S04078): no binding (tested: 0.1 µg/well)
binding (S04076): no binding (tested: 0.1 µg/well)
binding (S04067): no binding (tested: 0.1 µg/well)
binding (S04081): no binding (tested: 0.1 µg/well)
binding (S04080): no binding (tested: 0.1 µg/well)
binding (S04064): no binding (tested: 0.1 µg/well)
binding [2]: binds
